Some of the results follow. The calls were merged from several studies; some rest on single wells.
Legend:
Settings in all cases: stereoisomer not certain
[1] = test system: T1, O11L1
T1 sequence (whole entry): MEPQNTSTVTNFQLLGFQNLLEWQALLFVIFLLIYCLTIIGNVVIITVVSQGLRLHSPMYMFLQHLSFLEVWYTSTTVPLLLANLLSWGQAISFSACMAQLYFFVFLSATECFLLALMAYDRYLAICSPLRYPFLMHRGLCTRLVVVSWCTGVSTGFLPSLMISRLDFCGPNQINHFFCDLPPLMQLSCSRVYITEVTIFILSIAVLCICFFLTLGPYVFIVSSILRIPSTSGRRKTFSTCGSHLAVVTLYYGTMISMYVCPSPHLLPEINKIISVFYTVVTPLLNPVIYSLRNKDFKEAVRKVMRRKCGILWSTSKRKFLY
Outline: (§1)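 Values were gathered from published papers (main text and supplementary material), with extra details requested from the original authors when needed, and checked for typos and inconsistencies. Each receptor–molecule pair is called responsive (active) if the original authors judged the measured signal statistically different from baseline, and non-responsive (inactive) otherwise. Assay methods varied by source, often transient mammalian cell-line luciferase assays. Recorded details include cell line, G-protein, co-transfected protein and tags.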

[2] = test system: T2, O12D2
T2 sequence (whole entry): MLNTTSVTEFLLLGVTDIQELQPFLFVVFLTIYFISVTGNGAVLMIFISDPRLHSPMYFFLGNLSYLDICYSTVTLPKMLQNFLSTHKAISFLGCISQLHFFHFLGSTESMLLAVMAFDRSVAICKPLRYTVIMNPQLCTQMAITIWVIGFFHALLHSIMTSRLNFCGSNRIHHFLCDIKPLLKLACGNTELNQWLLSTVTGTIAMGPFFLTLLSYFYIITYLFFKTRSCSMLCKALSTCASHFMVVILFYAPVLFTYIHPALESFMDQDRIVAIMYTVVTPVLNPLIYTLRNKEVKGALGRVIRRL
Outline: as §1

[3] = test system: T3, O13C3
T3 sequence (whole entry): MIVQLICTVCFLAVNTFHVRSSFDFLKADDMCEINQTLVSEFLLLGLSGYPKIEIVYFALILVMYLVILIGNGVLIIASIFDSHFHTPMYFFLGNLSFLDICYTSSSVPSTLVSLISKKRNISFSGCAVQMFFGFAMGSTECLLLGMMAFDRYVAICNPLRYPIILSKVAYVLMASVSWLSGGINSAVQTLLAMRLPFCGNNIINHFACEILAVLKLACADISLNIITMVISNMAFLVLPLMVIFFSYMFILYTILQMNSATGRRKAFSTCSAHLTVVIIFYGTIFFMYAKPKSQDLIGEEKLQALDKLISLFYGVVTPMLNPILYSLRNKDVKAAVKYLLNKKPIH
Outline: as §1

[4] = test system: T4, O13C5
T4 sequence (whole entry): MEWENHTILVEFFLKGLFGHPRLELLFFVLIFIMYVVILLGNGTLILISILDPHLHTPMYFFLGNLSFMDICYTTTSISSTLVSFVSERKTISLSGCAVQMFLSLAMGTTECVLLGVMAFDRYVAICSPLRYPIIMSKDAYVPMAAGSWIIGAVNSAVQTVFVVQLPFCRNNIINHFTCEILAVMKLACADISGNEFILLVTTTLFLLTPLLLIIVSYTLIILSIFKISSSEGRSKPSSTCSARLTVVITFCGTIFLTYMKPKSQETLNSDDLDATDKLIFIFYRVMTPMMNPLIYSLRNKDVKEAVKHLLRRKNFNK
Outline: as §1

[5] = test system: T5, O13C7
T5 sequence (whole entry): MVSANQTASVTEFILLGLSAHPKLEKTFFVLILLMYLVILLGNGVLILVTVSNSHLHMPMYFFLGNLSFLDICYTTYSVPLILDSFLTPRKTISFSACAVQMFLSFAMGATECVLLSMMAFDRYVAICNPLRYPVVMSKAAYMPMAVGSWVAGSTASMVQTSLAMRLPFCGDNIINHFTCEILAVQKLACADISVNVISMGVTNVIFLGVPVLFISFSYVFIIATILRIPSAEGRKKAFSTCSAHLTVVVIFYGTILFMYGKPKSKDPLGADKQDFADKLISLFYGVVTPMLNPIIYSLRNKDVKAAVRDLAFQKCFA
Outline: as §1

[6] = test system: T6, O13C9
T6 sequence (whole entry): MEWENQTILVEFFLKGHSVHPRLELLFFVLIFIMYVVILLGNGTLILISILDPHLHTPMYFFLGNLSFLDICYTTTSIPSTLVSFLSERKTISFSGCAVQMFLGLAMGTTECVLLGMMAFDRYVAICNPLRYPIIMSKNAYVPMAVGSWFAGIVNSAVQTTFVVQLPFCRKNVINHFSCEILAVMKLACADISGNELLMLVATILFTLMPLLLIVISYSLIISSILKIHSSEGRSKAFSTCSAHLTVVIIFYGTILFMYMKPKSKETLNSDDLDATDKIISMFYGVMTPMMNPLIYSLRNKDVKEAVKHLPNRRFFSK
Outline: as §1

[7] = test system: T7, O13D1
T7 sequence (whole entry): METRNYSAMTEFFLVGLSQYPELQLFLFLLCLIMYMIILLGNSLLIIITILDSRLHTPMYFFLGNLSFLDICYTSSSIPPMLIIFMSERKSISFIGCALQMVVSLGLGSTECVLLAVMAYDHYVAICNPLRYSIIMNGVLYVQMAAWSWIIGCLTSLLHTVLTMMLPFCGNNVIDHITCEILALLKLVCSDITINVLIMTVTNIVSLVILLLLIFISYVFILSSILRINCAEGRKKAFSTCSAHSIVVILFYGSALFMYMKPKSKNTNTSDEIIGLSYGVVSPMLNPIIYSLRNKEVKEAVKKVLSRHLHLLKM
Outline: as §1

[8] = test system: T8, O13D1; remark: listed apart in the source
T8 sequence (whole entry): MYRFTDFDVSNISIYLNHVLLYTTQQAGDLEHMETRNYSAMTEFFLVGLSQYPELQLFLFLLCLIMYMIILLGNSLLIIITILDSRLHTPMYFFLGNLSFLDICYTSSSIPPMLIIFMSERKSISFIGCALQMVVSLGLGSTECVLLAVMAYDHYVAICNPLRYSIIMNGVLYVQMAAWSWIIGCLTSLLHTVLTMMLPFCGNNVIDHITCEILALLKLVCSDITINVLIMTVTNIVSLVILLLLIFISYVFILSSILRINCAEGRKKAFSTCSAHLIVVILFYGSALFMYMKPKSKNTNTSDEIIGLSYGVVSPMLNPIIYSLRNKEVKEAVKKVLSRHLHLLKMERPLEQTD
Outline: as §1

[9] = test system: T9, O13F1
T9 sequence (whole entry): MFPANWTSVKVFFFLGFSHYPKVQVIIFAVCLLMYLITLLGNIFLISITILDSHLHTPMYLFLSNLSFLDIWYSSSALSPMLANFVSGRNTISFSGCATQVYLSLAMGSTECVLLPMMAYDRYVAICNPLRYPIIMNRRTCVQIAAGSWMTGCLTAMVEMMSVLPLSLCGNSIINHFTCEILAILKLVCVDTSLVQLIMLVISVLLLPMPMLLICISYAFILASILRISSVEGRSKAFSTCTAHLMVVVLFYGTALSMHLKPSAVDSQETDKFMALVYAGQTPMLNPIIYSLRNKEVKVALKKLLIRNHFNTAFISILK
Outline: as §1

[10] = test system: T10, O13G1
T10 sequence (whole entry): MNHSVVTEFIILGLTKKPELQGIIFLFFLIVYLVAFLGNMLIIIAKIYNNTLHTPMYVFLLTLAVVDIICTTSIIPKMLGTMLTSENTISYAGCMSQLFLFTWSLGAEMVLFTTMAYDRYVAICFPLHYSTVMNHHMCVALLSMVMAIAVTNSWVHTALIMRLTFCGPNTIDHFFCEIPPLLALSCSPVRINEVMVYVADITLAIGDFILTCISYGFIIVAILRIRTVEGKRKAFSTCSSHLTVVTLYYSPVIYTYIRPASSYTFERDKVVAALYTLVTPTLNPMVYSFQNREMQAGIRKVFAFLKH
Outline: as §1

Measured: odorant receptor agonist call

CS
inactive: all assays above

CCC(C)=O
inactive: all assays above

CCCCOC(C)=O
inactive: all assays above
